Source: article PMC7966211, “Cooperativity of membrane-protein and protein–protein interactions control membrane remodeling by epsin 1 and affects clathrin-mediated endocytosis” (Cellular and Molecular Life Sciences: CMLS, 2020)
Results are given in words; binding and its absence hold for the method and conditions named.

B1: Rat Epsin1 WT ENTH 1-164 (domain or fragment, UniProt O88339 1-164, looked up)
chain: MSTSSLRRQMKNIVHNYSEAEIKVREATSNDPWGPSSSLMSEIADLTYNVVAFSEIMSMIWKRLNDHGKNWRHVYKAMTLMEYLIKTGSERVSQQCKENMYAVQTLKDFQYVDRDGKDQGVNVREKAKQLVALLRDEDRLREERAHALKTKEKLAQTATASSAA
notes: Epsin 1, rat, ENTH (epsin N-terminal homology) domain, residues 1-164; Expressed from pGEX-6P-2; also called ENTH domain; ENTH^WT; source: E. coli BL21(DE3), purified (GSTrap, GST cleaved with PreScission Protease, anion exchange, SEC)

Legend:
[1] = molecular target: ENTH domain mutant R114A (rat) (UniProt O88339); assay: SDS-resistant oligomers on SDS-PAGE after liposome co-sedimentation; 20 µM protein with 2 mg/ml LUVs that contain PS (Folch + PI(4,5)P2, or PC/PE/PS/PI(4,5)P2 with 5-20% PS), 3 h 30 °C, HEPES buffer, 205,000 x g, pellet and supernatant on SDS-PAGE; self-association on membranes; both …
[2] = molecular target: ENTH domain mutant R114A (rat) (UniProt O88339); assay: atomic force microscopy; 1 µM protein, 2 h RT, on supported bilayers with PS (DOPC/DOPE/DOPS/PI(4,5)P2/Texas Red DHPE 44.9:30:20:5:0.1) on silicon dioxide, PBS, contact mode; protein clusters on the membrane; both purified
[3] = molecular target: Rat Epsin1 WT ENTH 1-164 (rat) (UniProt O88339); assay: atomic force microscopy; 1 µM protein, 2 h RT, on PS-free supported bilayers (DOPC/DOPE/PI(4,5)P2/Texas Red DHPE 64.9:30:5:0.1) on silicon dioxide, PBS, contact mode; both purified

Row | Molecule | binding [1] | binding [2] | binding [3]
1 | ENTH domain mutant R114A (from UniProt O88339 1-164) (domain or fragment) | no binding (tested: 20 µM) | no binding (tested: 1 µM) | –
2 | B1 | – | – | no binding (condition: on PS-free membranes (1 µM ENTH))
